From PubChem BioAssay AID2549 (National Center for Advancing Translational Sciences (NCATS), 2010)
Where “and” joins values, the source holds several entries; their conditions need not be identical. Equal entries are not always repeated. Hit rate of the full screen: of about 240,000 compounds, about 1,300 (0.54%) were called active. Inconclusive means that the source gave no clear call. Such entries were picked first, then a sample of the others. Calls follow the shape of the dose curve; as a rule, active = well fitted inhibition curve with a large enough effect; inconclusive = small, poorly fitted or top-dose-only effect; inactive = flat fitted curve, though single readings scatter. Where the call is inconclusive, the potency comes from a doubtful curve fit.

Amino acid sequences for entries named in this document (tags omitted). A change or cut given only in a name is not applied to a line headed by its entry.
UniProt P46063: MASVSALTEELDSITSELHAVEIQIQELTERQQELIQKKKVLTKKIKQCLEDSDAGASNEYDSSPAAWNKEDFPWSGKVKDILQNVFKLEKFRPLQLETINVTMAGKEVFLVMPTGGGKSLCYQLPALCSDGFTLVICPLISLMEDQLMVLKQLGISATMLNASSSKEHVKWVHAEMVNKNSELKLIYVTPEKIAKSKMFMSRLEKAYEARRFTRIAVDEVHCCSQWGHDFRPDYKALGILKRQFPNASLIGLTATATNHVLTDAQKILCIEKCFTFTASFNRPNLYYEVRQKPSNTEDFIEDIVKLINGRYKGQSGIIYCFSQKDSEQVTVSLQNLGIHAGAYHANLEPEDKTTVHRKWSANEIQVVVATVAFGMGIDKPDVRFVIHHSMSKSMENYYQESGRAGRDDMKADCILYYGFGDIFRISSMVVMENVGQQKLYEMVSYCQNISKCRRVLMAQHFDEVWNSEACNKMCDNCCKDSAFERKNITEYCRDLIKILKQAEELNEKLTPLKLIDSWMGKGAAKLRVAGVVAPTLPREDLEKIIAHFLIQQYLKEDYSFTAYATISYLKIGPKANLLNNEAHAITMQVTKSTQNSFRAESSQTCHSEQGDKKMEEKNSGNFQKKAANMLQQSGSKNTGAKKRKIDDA

Each molecule was assayed against ATP-dependent DNA helicase Q1 (Homo sapiens) (UniProt P46063) (assay: qHTS Assay for Inhibitors of RecQ-Like Dna Helicase 1 (RECQ1)). Conditions: RECQ1 DNA unwinding, red fluorescence kinetic read; series mostly up to 57.3 µM.
Outline: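 RECQ1T1 50 nM; forked duplex (20 bp + 30-nt ss tails) 200 nM, ATP 2 mM final; pH 8.0, 2 mM MgCl2, 2.5 ug/ml poly(dI-dC); 15 min compound preincubation; discontinuous kinetic read over 2 h at RT.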
Also: nearly all actives have a fitted effect of over 30% in size.
Potency is read from the fitted curve at half-maximal effect.

Row | Compound | Potency
1 | O=C1NC(=O)N(c2ccccc2)C(=O)/C1=C\C=C\c1ccccc1 | inactive
2 | O=[N+]([O-])c1ccc(NCc2ccccc2)c2nonc12 | active: 11.2 µM
3 | Cc1ccccc1-n1c(O)c(/C=C/C=Nc2ccccc2)c(=O)[nH]c1=O | active: 25.1 µM
4 | CC1N(C)c2cc(NC(=O)c3ccco3)c(P(=O)(Nc3ccc([N+](=O)[O-])cc3)N3CCOCC3)cc2C1(C)C (stereo unspecified) | inconclusive: 35.5 µM [inhibitor, single point]
5 | c1cncc(CNC2CCCC2)c1 | inactive
6 | COP(=O)(OC)[C@@H](O)C(Cl)(Cl)Cl | inactive
7 | NC(=O)c1ccc(N=Cc2c(O)n(Cc3ccco3)c(=O)[nH]c2=O)cc1 | inconclusive: 35.5 µM [inhibitor, single point]
8 | COc1ccc(CN2C(=O)NC(=O)/C(=C/c3ccc(OC)c(OC)c3OC)C2=O)cc1 | inconclusive: 39.8 µM [inhibitor, single point]
9 | O=C(O)c1ccccc1-c1c2cc(Br)c(=O)cc-2oc2[c]([Hg])c(O)c(Br)cc12 | active: 14.1 µM and active: 25.1 µM
10 | CN1CCC(N(C)c2nc(-c3ccc([N+](=O)[O-])cc3)nc3ccccc23)CC1 | inactive
11 | CC1=NCCc2c1[nH]c1cc(O)ccc21 | inconclusive: 31.6 µM [inhibitor, partial curve, poor fit]
12 | COc1cc(O)c(C(=O)O)c(-c2cc(O)c(O)cc2C)c1 | inconclusive: 39.8 µM [inhibitor, single point]
13 | OC1(c2ccc(Cl)cc2)CCN(Cc2c[nH]c3ccccc23)CC1 | inconclusive: 7.94 µM [inhibitor, full curve, poor fit]
14 | CCC(C)c1ccc(N2C(=O)NC(=O)/C(=C/c3cccn3CCOc3ccc(C)cc3)C2=O)cc1 (stereo unspecified) | inconclusive: 35.5 µM [inhibitor, single point]
15 | Cc1cccn2c(=O)c(C=Nc3ccccc3)c(NCc3ccco3)nc12 | inconclusive: 39.8 µM [inhibitor, single point]
16 | O=C1C=CC(=O)c2c(O)cccc21 | active: 1.78 µM and active: 4.47 µM
17 | COC[C@H]1OC(=O)c2coc3c2[C@@]1(C)C1=C(C3=O)[C@@H]2CCC(=O)[C@@]2(C)C[C@H]1OC(C)=O | active: 35.5 µM
18 | OC[C@H]1O[C@@H](n2cnc3cc(Cl)c(Cl)cc32)[C@H](O)[C@H]1O | inactive
19 | O=C1CC(N2CC=C(c3ccccc3)CC2)C(=O)N1c1ccc(F)cc1 (stereo unspecified) | active: 28.2 µM
20 | CC1=CC(=O)c2c(O)cccc2C1=O | inconclusive: 22.4 µM [inhibitor, single point]
21 | CSCC[C@H](NC(=O)[C@H](CC(C)C)NC(=O)[C@@H](Cc1cnc[nH]1)NC(=O)[C@H](Cc1ccccc1)NC(=O)[C@@H](Cc1ccccc1)NC(=O)[C@@H](N)Cc1ccc(O)cc1)C(N)=O | inactive
22 | Cc1[nH]n(-c2ccccc2)c(=O)c1C(c1ccc([N+](=O)[O-])cc1)c1c(C)[nH]n(-c2ccccc2)c1=O | inactive
23 | CCCCn1c(NC(=O)c2ccco2)c(C(=O)OCC)c2nc3ccccc3nc21 | inconclusive: 35.5 µM [inhibitor, single point]
24 | COC1=CC(=O)OC(CCc2ccccc2)C1 (stereo unspecified) | inactive

Row | Compound | Potency
25 | CSc1nnc([C@@H](N)Cc2c[nH]c3ccccc23)o1 | inactive
26 | O=C1NC(=O)C(=Cc2ccccc2Oc2ccc(F)cc2)C(=O)N1 | inactive
27 | Nc1ccc(Cl)cc1C(=O)c1ccccc1Cl | active: 25.1 µM
28 | COc1ccc(CN2C(=O)NC(=O)/C(=C\c3ccco3)C2=O)cc1 | inconclusive: 35.5 µM [inhibitor, single point]
29 | C[C@H](N)[C@H](O)c1ccc(O)c(O)c1 | active: 1.78 µM
30 | CC(Oc1ccc(Cl)cc1Cl)C(=O)Nc1ccc(S(=O)(=O)Nc2cnc3ccccc3n2)cc1 (stereo unspecified) | active: 17.8 µM
31 | COC(=O)/C(C)=C\CC12OC(C)(C)C3CC(C=C4C(=O)c5c(OC)c6c(c(CC=C(C)C)c5OC431)OC(C)(CCC=C(C)C)C=C6)C2=O (stereo unspecified) | inactive
32 | O=C(CN1CCCC1=O)NCCc1ccccc1 | inactive
33 | CCCCN1C(=O)/C(=C\c2ccco2)C(=O)N(CCc2ccccc2)C1=O | active: 31.6 µM
34 | O=C(O)c1ccc(-c2ccc3cc(C45CC6CC(CC(C6)C4)C5)c(O)cc3c2)cc1 | active: 20 µM
35 | O=[N+]([O-])c1cc(O)c(O)c([N+](=O)[O-])c1 | inconclusive: 3.16 µM [inhibitor, full curve] and inconclusive: 5.01 µM [inhibitor, single point]
36 | CCC(C)NC(=O)c1c(N)n(Cc2ccc3c(c2)OCO3)c2nc3ccccc3nc12 (stereo unspecified) | inconclusive: 39.8 µM [inhibitor, single point]
37 | O=C1NC(=O)N(Cc2ccco2)C(=O)/C1=C/c1ccc(-c2cccc([N+](=O)[O-])c2)o1 | inconclusive: 35.5 µM [inhibitor, single point]
38 | CCC(C)n1c(O)c(C=Nc2cccc(C(F)(F)F)c2)c(=O)[nH]c1=S (stereo unspecified) | inconclusive: 39.8 µM [inhibitor, single point]
39 | COc1ccc(CCn2c(NN=C3CCCCC3)nc3c2c(=O)[nH]c(=O)n3C)cc1 | inconclusive: 39.8 µM [inhibitor, single point]
40 | CC1Oc2cc3c(-c4c(O)cc(O)c5c(O)c6c(cc45)OC(C)C(C)C6=O)c(O)cc(O)c3c(O)c2C(=O)C1C (stereo unspecified) | active: 25.1 µM
41 | COc1ccc(CN2C(=O)NC(=O)/C(=C/c3ccc([N+](=O)[O-])s3)C2=O)cc1 | active: 31.6 µM
42 | Nc1c(C(=O)NCCc2ccccc2)c2nc3ccccc3nc2n1CCN1CCOCC1 | active: 8.91 µM
43 | O=[N+]([O-])c1ccc(Sc2nc3ccccc3o2)c([N+](=O)[O-])c1 | inconclusive: 2.51 µM [inhibitor, partial curve, poor fit]
44 | Oc1c(Cl)cc(Cl)cc1Cl | inconclusive: 14.1 µM [inhibitor, partial curve]
45 | Cc1ccc(N2C(=O)/C(=C/c3ccc(CN(CCC#N)S(C)(=O)=O)o3)C(=O)NC2=S)cc1 | inconclusive: 35.5 µM [inhibitor, single point]
46 | C=CCN1CCC2(C)c3cc(O)ccc3C[C@H]1[C@H]2C | inactive
47 | C=C(C)[C@H]1CN[C@H](C(=O)O)[C@H]1CC(=O)O | inactive
48 | Cc1ccc(CN2CCN(Cc3ccccc3F)CC2)cc1 | inactive

Row | Compound | Potency
49 | O=C(CSc1ccc(-c2ccco2)nn1)Nc1ccccc1 | active: 25.1 µM
50 | CCc1ccc(N2C(=O)NC(=O)/C(=C\C=C\c3ccco3)C2=O)cc1 | active: 8.91 µM
51 | N#CC(Cl)(Cl)Cl | inactive
52 | CN(C)C1C(=O)C(C(N)=O)=C(O)[C@@]2(O)C(=O)C3=C(O)c4c(O)cccc4[C@@](C)(O)C3C[C@@H]12 (stereo partly specified) | inconclusive: 2.82 µM [inhibitor, partial curve, poor fit]
53 | C[C@H]1C[C@H](C)C(=O)[C@@H]([C@H](O)CC2CC(=O)NC(=O)C2)C1 | inactive
54 | COCc1ccc(CN2CCCC(C(=O)c3sccc3C)C2)o1 (stereo unspecified) | inconclusive: 0.0282 µM [inhibitor, full curve, poor fit]
55 | NCC1O[C@@H](O[C@H]2C(O)C(O[C@@H]3C(O[C@H]4OC(CO)C(O)C(O)C4N)C(N)CC(N)[C@H]3O)O[C@@H]2CO)C(N)C(O)C1O (stereo partly specified) | inconclusive: 35.5 µM [inhibitor, single point]
56 | CN1C(=O)NC(=O)/C(=C/c2ccc([N+](=O)[O-])s2)C1=O | inconclusive: 39.8 µM [inhibitor, single point]
57 | CCOC(=O)C1CCN(/C=C2/C(=O)NC(=O)N(Cc3ccco3)C2=O)CC1 | inconclusive: 17.8 µM [inhibitor, partial curve]
58 | O=C1NC(=S)N(C2CC2)C(=O)/C1=C/c1ccc2c(c1)CCN2CCCCl | inconclusive: 35.5 µM [inhibitor, single point]
59 | Cc1cc(/C=C2/C(=O)NC(=O)N(Cc3ccco3)C2=O)c(C)n1-c1ccccc1 | active: 28.2 µM
60 | CCCCN1C(=O)/C(=C/c2ccc(N(C)C)cc2)C(=O)N(Cc2ccco2)C1=O | active: 28.2 µM
61 | CC(C)N1C(=O)c2ccccc2NS1(=O)=O | inconclusive: 39.8 µM [inhibitor, single point]
62 | CCCCc1ccc(C(=O)O)nc1 | inactive
63 | [O]=[Cr](=[O])([OH])[O][Cr](=[O])(=[O])[OH] | active: 12.6 µM
64 | N#Cc1c(/N=C/c2c(O)n(Cc3ccco3)c(=O)[nH]c2=O)sc2c1CCCC2 | inconclusive: 39.8 µM [inhibitor, single point]
65 | CN1CCCCC1c1ccc(-c2cccnc2)nc1 (stereo unspecified) | inconclusive: 0.398 µM [inhibitor, partial curve, poor fit]
66 | C/C(=N\OC(=O)NC(C)C)c1sc(-c2ccccc2)nc1C | inconclusive: 5.62 µM [inhibitor, full curve]
67 | CC(=NCc1ccc2c(c1)OCO2)c1c(O)[nH]c(=O)[nH]c1=O | inconclusive: 28.2 µM [inhibitor, partial curve, poor fit]
68 | CC(N)[C@H](O)c1ccc(O)c(O)c1 (stereo partly specified) | active: 6.31 µM
69 | Fc1ccc(-c2nc3c(-c4ccc(F)cc4)cnn3cc2CCN2CCOCC2)cc1 | inconclusive: 35.5 µM [inhibitor, single point]
70 | NCCc1cc(O)c(O)cc1O | active: 3.55 µM and active: 8.91 µM
71 | CC(C)C1C(=O)N2CCCC2[C@]2(O)O[C@@](NC(=O)[C@@H]3C=C4c5cccc6[nH]cc(c56)C[C@H]4N(C)C3)(C(C)C)C(=O)N12 (stereo partly specified) | inconclusive: 39.8 µM [inhibitor, single point]

Fetched one by one from the list above:
Row | Compound | Potency
49 | O=C(CSc1ccc(-c2ccco2)nn1)Nc1ccccc1 | active: 25.1 µM
61 | CC(C)N1C(=O)c2ccccc2NS1(=O)=O | inconclusive: 39.8 µM [inhibitor, single point]
58 | O=C1NC(=S)N(C2CC2)C(=O)/C1=C/c1ccc2c(c1)CCN2CCCCl | inconclusive: 35.5 µM [inhibitor, single point]
